# Assay results reported in patent publication US12679802B2, “Malonamides and their use as herbicides” (BASF SE, priority 2021, dated 2026).
# Some entries share one result that the patent states for a list of compounds. Some ranges recur; such a range may be that of the whole group of compounds.
# Key:
# [1] = system: APESV; test: greenhouse herbicidal test, pre-emergence treatment; format: in vivo, Apera spica-venti; conditions: pre-emergence method, application rate 1.000 kg/ha; scale from 0 to 100
# Text: (§1) The seeds of the test plants were sown separately for each species. For the pre-emergence treatment, the active ingredients, which had been suspended or emulsified in water, were applied directly after sowing by means of finely distributing nozzles. The containers were irrigated gently to promote germination and growth and subsequently covered with transparent plastic hoods until the test plants had rooted. This cover caused uniform germination of the test plants, unless this had been impaired by the active ingredients. For the post-emergence treatment, the test plants were first grown to a height of 3 to 15 cm, depending on the plant habit, and only then treated with the active ingredients which had been suspended or emulsified in water. For this purpose, the test plants were either sown directly and grown in the same containers, or they were first grown separately as seedlings and transplanted into the test containers a few days prior to treatment. Depending on the species, the test plants were kept at 10-25° C. or 20-35° C., respectively. The test period extended over 2 to 4 weeks. During this time, the test plants were tended, and their response to the individual treatments was evaluated. Evaluation was carried out using a scale from 0 to 100. […]
# [2] = system: AMARE; test: greenhouse herbicidal test, post-emergence treatment; format: in vivo, Amaranthus retroflexus; conditions: post-emergence method, scale from 0 to 100
# Text: (§2) The seeds of the test plants were sown separately for each species. For the pre-emergence treatment, the active ingredients, which had been suspended or emulsified in water, were applied directly after sowing by means of finely distributing nozzles. The containers were irrigated gently to promote germination and growth and subsequently covered with transparent plastic hoods until the test plants had rooted. This cover caused uniform germination of the test plants, unless this had been impaired by the active ingredients. For the post-emergence treatment, the test plants were first grown to a height of 3 to 15 cm, depending on the plant habit, and only then treated with the active ingredients which had been suspended or emulsified in water. For this purpose, the test plants were either sown directly and grown in the same containers, or they were first grown separately as seedlings and transplanted into the test containers a few days prior to treatment. Depending on the species, the test plants were kept at 10-25° C. or 20-35° C., respectively. The test period extended over 2 to 4 weeks. During this time, the test plants were tended, and their response to the individual treatments was evaluated. Evaluation was carried out using a scale from 0 to 100. 100 means no emergence of the test plants, or complete destruction of at least the aerial moieties, and 0 means no damage, or normal course of growth. A good herbicidal activity is given at values of 65 to 90 and a very good herbicidal activity is given at values of 90 to 100. The test plants used in the greenhouse experiments were of the following species: [table]
# [3] = system: SETVI; test: as above; format: in vivo, Setaria viridis; conditions: post-emergence method, application rate 0.500 kg/ha; scale from 0 to 100
# Text: as §1
# [4] = system: ECHCG; test: as above; format: in vivo, Echinocloa crus-galli; conditions: post-emergence method, scale from 0 to 100
# Text: as §2
# [5] = system: ABUTH; test: as above; format: in vivo, Abutilon theophrasti; conditions: post-emergence method, application rate 0.250 kg/ha; scale from 0 to 100
# Text: as §1
# [6] = system: AVEFA; test: as above; format: in vivo, Avena fatua; conditions: post-emergence method, application rate 0.250 kg/ha; scale from 0 to 100
# Text: as §1
compound,measurement,setting,value
COC(=O)CC(C)NC(=O)C(F)(Br)C(=O)Nc1cc(Cl)cc(Cl)c1 (stereo not shown) [I.12],herbicidal activity against APESV,[1],good (A good herbicidal activity is given at values of 65 to 90)
"COC(=O)C[C@H](C)NC(=O)C(F)C(=O)Nc1cc(Cl)cc(Cl)c1 (stereo partly drawn) [I.5, methyl (3S)-3-[[3-(3,5-dichloroanilino)-2-fluoro-3-oxo-propanoyl]amino]butanoate]",herbicidal activity against APESV,[1],good (A good herbicidal activity is given at values of 65 to 90)
same,herbicidal activity against AMARE,[2]; application rate 1.000 kg/ha,good (A good herbicidal activity is given at values of 65 to 90)
"COC(=O)CCCNC(=O)C(F)(F)C(=O)Nc1cc(Cl)cc(Cl)c1 [I.1, methyl 4-[[3-(3,5-dichloroanilino)-2,2-difluoro-3-oxo-propanoyl]amino]butanoate]",herbicidal activity against AMARE,[2]; application rate 0.500 kg/ha,good (A good herbicidal activity is given at values of 65 to 90)
same,herbicidal activity against SETVI,[3],very good (a very good herbicidal activity is given at values of 90 to 100)
COC(=O)CC(C)NC(=O)C(F)(C(=O)Nc1cc(Cl)cc(Cl)c1)C(C)O (stereo not shown) [I.6],herbicidal activity against ECHCG,[4]; application rate 0.500 kg/ha,very good (a very good herbicidal activity is given at values of 90 to 100)
CC(CC(=O)OC(C)C)NC(=O)C(C)(F)C(=O)Nc1cc(F)cc(Cl)c1 (stereo not shown) [I.16],herbicidal activity against ABUTH,[5],very good (a very good herbicidal activity is given at values of 90 to 100)
same,herbicidal activity against ECHCG,[4]; application rate 0.250 kg/ha,very good (a very good herbicidal activity is given at values of 90 to 100)
same,herbicidal activity against AVEFA,[6],good (A good herbicidal activity is given at values of 65 to 90)
"COC(=O)[C@@H]1CCC(NC(=O)C(F)(F)C(=O)Nc2cc(Cl)cc(Cl)c2)C1 (stereo partly drawn) [I.4, methyl (1R)-3-[[3-(3,5-dichloroanilino)-2,2-difluoro-3-oxo-propanoyl]amino]cyclopentanecarboxylate]",herbicidal activity against ABUTH,[5],very good (a very good herbicidal activity is given at values of 90 to 100)
same,herbicidal activity against ECHCG,[4]; application rate 0.250 kg/ha,very good (a very good herbicidal activity is given at values of 90 to 100)
same,herbicidal activity against AMARE,[2]; application rate 0.250 kg/ha,very good (a very good herbicidal activity is given at values of 90 to 100)
"COC(=O)C[C@H](C)NC(=O)C(F)(F)C(=O)Nc1cc(Cl)cc(Cl)c1 [I.2, methyl (3S)-3-[[3-(3,5-dichloroanilino)-2,2-difluoro-3-oxo-propanoyl]amino]butanoate]",herbicidal activity against ECHCG,[4]; application rate 0.500 kg/ha,very good (a very good herbicidal activity is given at values of 90 to 100)
same,herbicidal activity against AMARE,[2]; application rate 0.500 kg/ha,good (A good herbicidal activity is given at values of 65 to 90)
same,herbicidal activity against SETVI,[3],very good (a very good herbicidal activity is given at values of 90 to 100)
"COC(=O)[C@@H]1CCC(NC(=O)C(F)(F)C(=O)Nc2cc(Cl)cc(Cl)c2)C1 (stereo partly drawn) [I.3, methyl (1R)-3-[[3-(3,5-dichloroanilino)-2,2-difluoro-3-oxo-propanoyl]amino]cyclopentanecarboxylate]",herbicidal activity against AVEFA,[6],good (A good herbicidal activity is given at values of 65 to 90)
